Residue numbers refer to the chain shown, from its start. Results are given in words; binding and its absence hold for the method and conditions named. For part of these data: In cells and extracts the contact can be indirect. Some binding calls cover weakened binding; strength is not graded here. For part of these data: Where a sequence is shown, tags or fusion partners need not be part of it. One block for each molecule: values may come before it.
Experiments:
FLAG–Nrf2 = molecular target: T1, FLAG–Nrf2 (UniProt Q60795); assay: co-IP; nuclear fractions of 293T clones transformed with FLAG-tagged Jdp2, Nrf2 or MafK; immunoprecipitated with anti-FLAG M2 and protein A/G-Sepharose; western blot with antibodies against Nrf2, MafK and JDP2
T1 sequence: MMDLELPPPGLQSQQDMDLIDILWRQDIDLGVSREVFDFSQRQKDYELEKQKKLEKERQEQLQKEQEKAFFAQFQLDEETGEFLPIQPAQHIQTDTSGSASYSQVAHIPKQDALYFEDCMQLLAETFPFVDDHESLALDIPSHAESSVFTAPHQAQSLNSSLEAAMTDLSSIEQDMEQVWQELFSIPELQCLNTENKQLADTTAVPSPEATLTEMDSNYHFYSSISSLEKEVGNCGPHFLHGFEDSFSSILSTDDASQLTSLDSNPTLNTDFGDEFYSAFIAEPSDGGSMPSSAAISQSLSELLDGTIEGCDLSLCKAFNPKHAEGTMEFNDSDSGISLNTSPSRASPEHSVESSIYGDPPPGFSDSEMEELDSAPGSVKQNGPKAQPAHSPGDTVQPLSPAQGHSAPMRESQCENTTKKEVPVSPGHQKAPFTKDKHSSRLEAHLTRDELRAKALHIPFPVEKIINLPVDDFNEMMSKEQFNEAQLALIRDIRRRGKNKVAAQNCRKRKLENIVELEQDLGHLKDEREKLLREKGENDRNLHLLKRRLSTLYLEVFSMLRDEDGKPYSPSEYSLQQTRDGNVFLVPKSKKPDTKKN

The chains behind the UniProt entries cited, without tags or fusion partners.
UniProt O60675: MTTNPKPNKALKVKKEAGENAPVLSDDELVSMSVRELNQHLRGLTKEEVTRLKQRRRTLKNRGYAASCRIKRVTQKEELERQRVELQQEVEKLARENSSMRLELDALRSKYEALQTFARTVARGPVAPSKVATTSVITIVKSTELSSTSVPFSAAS
UniProt Q8WYK2: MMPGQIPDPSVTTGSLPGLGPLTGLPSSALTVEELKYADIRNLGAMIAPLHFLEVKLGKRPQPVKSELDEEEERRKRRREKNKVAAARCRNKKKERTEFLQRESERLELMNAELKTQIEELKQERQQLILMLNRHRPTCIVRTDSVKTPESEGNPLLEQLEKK

FLAG–Jdp2 (mouse) = molecular target: T2, FLAG–Jdp2 (mouse) (UniProt P97875); assay: as above
T2 sequence: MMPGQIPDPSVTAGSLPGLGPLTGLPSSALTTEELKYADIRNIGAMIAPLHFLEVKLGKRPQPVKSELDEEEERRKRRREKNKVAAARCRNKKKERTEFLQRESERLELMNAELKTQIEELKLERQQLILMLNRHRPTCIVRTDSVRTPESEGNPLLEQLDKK

GST–Nrf2 = molecular target: T3, GST–Nrf2 (UniProt Q60795); assay: pull-down; 10 μg GST fusion protein on 10 μl glutathione-Sepharose beads incubated with 5 μl nonradioactive in vitro-translated protein in 500 μl binding buffer, 2 h at 4 °C; washed five times with 100 mM NaCl, 20 mM HEPES pH 7.9, 0.1% NP-40, 5 mM MgCl2, 0.5 mM PMSF; bound protein detected by western blotting; only the target purified
T3 sequence: T1 sequence

[1] = molecular target: T4, in vitro-translated JDP2 (mouse) (UniProt P97875); assay: native gel or EMSA; 10 ng in vitro-translated proteins incubated at 25 °C for 30 min with labeled human NQO1–ARE oligonucleotide; 5% nondenaturing polyacrylamide gel at 4 °C in 0.5 x Tris-borate/EDTA; complex seen on DNA
T4 sequence: T2 sequence

GST-JDP2 = molecular target: T5, GST-JDP2 (mouse, UniProt P97875 1-163); assay: pull-down; 10 μg GST fusion protein on 10 μl glutathione-Sepharose beads incubated with 5 μl nonradioactive in vitro-translated protein in 500 μl binding buffer, 2 h at 4 °C; washed five times with 100 mM NaCl, 20 mM HEPES pH 7.9, 0.1% NP-40, 5 mM MgCl2, 0.5 mM PMSF; bound protein detected by western blotting; only the target purified
T5 sequence: T2 sequence

Molecule: MafK detected in anti-FLAG immunoprecipitates of 293T nuclear extracts (from UniProt O60675 1-156)
binding (FLAG–Nrf2): binds
binding (FLAG–Jdp2 (mouse)): binds

B1: JDP2 detected in anti-FLAG immunoprecipitates of 293T nuclear extracts (protein, UniProt Q8WYK2 1-163)
chain: T2 sequence with A13T, T32V, I43L, L123Q, R147K, D161E
binding (FLAG–Nrf2): binds

The remaining lines, values ahead:

binding (GST–Nrf2): binds
B2: in vitro-translated JDP2 (protein, UniProt P97875 1-163)
chain: T2 sequence

binding [1]: binds
binding (GST-JDP2): binds
B3: in vitro-translated Nrf2 (protein, UniProt Q60795 1-597)
chain: T1 sequence
